Measurements as given in PMC6337871.
Results are given in words; binding and its absence hold for the method and conditions named. In cells and extracts the contact can be indirect. Some results given as binding are weak or reduced against the parent protein; the word gives no strength. For part of these data: Tags and fused reporters may be left off the sequences shown. One block for each molecule: values may come before it.

Chains of the proteins cited; added tags and fusions are not shown.
UniProt O95817: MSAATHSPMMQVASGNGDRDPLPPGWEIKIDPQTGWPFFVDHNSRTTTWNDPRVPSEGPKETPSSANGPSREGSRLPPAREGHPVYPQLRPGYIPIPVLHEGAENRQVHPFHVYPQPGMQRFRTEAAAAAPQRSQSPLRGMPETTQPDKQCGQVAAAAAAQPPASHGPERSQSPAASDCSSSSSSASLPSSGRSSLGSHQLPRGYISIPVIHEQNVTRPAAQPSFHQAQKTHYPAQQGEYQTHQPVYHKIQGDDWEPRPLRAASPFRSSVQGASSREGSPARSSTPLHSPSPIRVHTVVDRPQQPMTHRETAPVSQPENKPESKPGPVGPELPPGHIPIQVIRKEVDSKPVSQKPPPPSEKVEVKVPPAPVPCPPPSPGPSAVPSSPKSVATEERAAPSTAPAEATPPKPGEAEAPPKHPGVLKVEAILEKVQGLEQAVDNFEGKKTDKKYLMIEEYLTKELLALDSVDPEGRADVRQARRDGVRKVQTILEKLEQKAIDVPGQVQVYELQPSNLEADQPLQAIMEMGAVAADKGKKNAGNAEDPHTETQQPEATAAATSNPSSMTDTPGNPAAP
UniProt P11142: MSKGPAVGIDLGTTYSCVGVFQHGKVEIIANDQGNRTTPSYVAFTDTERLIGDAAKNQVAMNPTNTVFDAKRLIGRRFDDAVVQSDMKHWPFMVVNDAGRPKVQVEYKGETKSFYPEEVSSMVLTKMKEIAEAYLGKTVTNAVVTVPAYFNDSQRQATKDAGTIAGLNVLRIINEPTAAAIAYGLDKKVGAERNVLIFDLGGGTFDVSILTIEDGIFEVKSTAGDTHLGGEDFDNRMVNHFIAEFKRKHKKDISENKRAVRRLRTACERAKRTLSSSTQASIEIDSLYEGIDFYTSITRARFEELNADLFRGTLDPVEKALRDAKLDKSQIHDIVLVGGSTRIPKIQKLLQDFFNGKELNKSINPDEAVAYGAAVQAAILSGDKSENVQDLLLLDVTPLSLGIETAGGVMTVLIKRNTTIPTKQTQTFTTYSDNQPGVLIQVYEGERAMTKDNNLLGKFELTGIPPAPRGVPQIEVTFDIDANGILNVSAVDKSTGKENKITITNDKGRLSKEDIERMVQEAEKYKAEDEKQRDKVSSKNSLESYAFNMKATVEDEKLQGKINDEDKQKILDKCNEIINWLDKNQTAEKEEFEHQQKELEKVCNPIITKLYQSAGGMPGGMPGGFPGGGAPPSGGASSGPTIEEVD

How the values were obtained:
[1] = biological target: Bcl-2-associated athanogene 3 (BAG3) (human (cDNA from HEK293 cells; U251 is a human cell line)) (UniProt O95817); test: co-IP; U251 cell lysates, RIPA buffer; which protein was precipitated is not told in the text (Fig. 3c)
[2] = biological target: Bcl-2-associated athanogene 3 (BAG3) (human (cDNA from HEK293 cells; U251 is a human cell line)) (UniProt O95817); test: co-IP; BAG3 immunoprecipitates from U251 cell lines stably overexpressing CRYAB-Flag or empty vector, RIPA buffer; blots for HSC70, HSPB8 and CRYAB (Fig. 3d)
[3] = biological target: Bcl-2-associated athanogene 3 (BAG3) (human (cDNA from HEK293 cells; U251 is a human cell line)) (UniProt O95817); test: co-IP; lysates of U251 cells stably overexpressing CRYAB-Flag; RIPA buffer (50 mM Tris pH 7.4, 150 mM NaCl, 1% NP-40, 0.5% sodium deoxycholate, 0.1% SDS); precipitating antibody not told in the text (Fig. 3a)

binding [1]: binds
binding [2]: binds
Molecule: HSC70 (from UniProt P11142 1-646)

binding [3]: binds
binding [2]: binds
B1: αB-crystallin (CRYAB)-Flag (protein, UniProt P02511 1-175)
chain: MDIAIHHPWIRRPFFPFHSPSRLFDQFFGEHLLESDLFPTSTSLSPFYLRPPSFLRAPSWFDTGLSEMRLEKDRFSVNLDVKHFSPEELKVKVLGDVIEVHGKHEERQDEHGFISREFHRKYRIPADVDPLTITSSLSSDGVLTVNGPRKQVSGPERTIPITREEKPAVTAAPKK

binding [1]: binds
binding [2]: binds
B2: HSPB8 (protein, UniProt Q9UJY1 1-196)
chain: MADGQMPFSCHYPSRLRRDPFRDSPLSSRLLDDGFGMDPFPDDLTASWPDWALPRLSSAWPGTLRSGMVPRGPTATARFGVPAEGRTPPPFPGEPWKVCVNVHSFKPEELMVKTKDGYVEVSGKHEEKQQEGGIVSKNFTKKIQLPAEVDPVTVFASLSPEGLLIIEAPQVPPYSTFGESSFNNELPQDSQEVTCT
